Laboratory results reported in PubChem BioAssay AID1487 (National Center for Advancing Translational Sciences (NCATS), 2009).
Several values for one entry are separate records, joined by “and”; a condition that tells them apart may be missing. Identical values can stand only once. The list shows a part of the results. Shown are side measurements of this screen, not its main read-out; they come without a call. Compounds called inactive in the main read-out are mostly missing here. Potencies come from curve fits of mixed quality, noted in brackets.

Assay: qHTS Assay for Modulators of Lamin A Splicing
Conditions: HeLa LMNA splicing GFP/RFP minigene ratio, 48 h
Description: NCGC Assay Overview: Hutchinson-Gilford Progeria Syndrome (HGPS) is a pediatric premature aging disease caused by a spontaneous mutation in the lamin A/C (LMNA) gene. The mutation activates a cryptic splice site in the LMNA pre-mRNA which results in production of a pre-lamin A protein that cannot be processed properly. The mutant protein accumulates in the nucleus and negatively affects numerous cellular functions. Correction of the splicing defect in HGPS patient cells using a targeted oligonucleotide (exo11) leads to reversal of the cellular disease phenotypes. To identify small molecule modulators of aberrant LMNA splicing, a homogenous assay was constructed in HeLa cells that used a GFP containing minigene to report on correction of aberrant splicing in lamin A and a RFP (DsRed2) to report on cell viability, uniformity and nonspecific effects on the assay signal. This assay was adapted to laser-scanning microplate cytometry (Acumen, TTP Labtech) where miniaturization of the assay to a 1,536-well plate format was possible. References: Bowen, W. P.; Wylie, P. G. Application of Laser-Scanning Fluorescence Microplate Cytometry in High Content Screening. Assay Drug Dev Technol 2006;4:209-221. Scaffidi P, Misteli T. Reversal of the cellular phenotype in the premature aging disease Hutchinson-Gilford progeria syndrome. Nat.
NCGC Assay Protocol Summary: Reagents/Controls: Stable clones expressing DsRed2 and lamin A-EGFP were generated by Cell and Molecular Technologies in S3 HeLa cells. HeLa cells were prepared for the assay when they were 70-90% confluent. The cells were counted and resuspended in Opti-MEM I (no phenol red; Gibco), 2% FBS, 1% penicillin/ streptomycin (Gibco) at concentration of 120 cells/uL concentration. The suspension was passed through a Falcon basket filter with pore size 40um (Beckton Dickson). Control titrations: column […] 1536-well plate contained a sixteen point titration (1:2 dilutions) in duplicate of ancitabine (Sigma: A8598) beginning at 40 uM final concentration. Column 2 contained a sixteen point titration (1:2 dilutions) of cycloheximide beginning at 1.4 mM final concentration. Column 3 contained ancitabine at 40 uM and column 4 contained was the vehicle control (0.5% DMSO final concentration). Assay Steps: 5 uL of HeLa cells were plated in Aurora LoBase black clear bottom (cyclic-olefin polymer) 1536-well plates at a final density of 600 cells/well. Controls and library compounds were added with a 1536-well pin array using the Kalypsys pin-tool. The plates were then incubated for 48 hrs in a cell-culture incubator (37 °C; 5% CO2, 98% humidity). Following incubation the plates were read on the Acumen Explorer using the 488 nm laser. Data was collected on objects between 10 and 100 um in size. Cell objects were defined by a 15 um width x 10 um depth filter. The ratio of the total object intensity in PMT1 (500-530 nm emission; GFP) over PMT3 (575-640 nm emission; RFP) was calculated for analysis. Keywords: NIH Roadmap, MLSCN, MLI, MLSMR, qHTS, NCGC, lamin A, Progeria, RNA splicing.

[1] = measured here: GFP splicing reporter channel
[2] = measured here: RFP viability control channel

Compound	AC50 [1]	AC50 [2]
O=C(Nc1nc(-c2ccccc2)cs1)c1ccccc1NS(=O)(=O)c1ccc(F)cc1	3.55 µM [rising, single point]	3.55 µM [rising, partial curve]
Cc1cc2ncn(CCCCOc3ccccc3)c2cc1C	35.5 µM [rising, single point]	17.8 µM [rising, single point]
CCCCN(CCCC)S(=O)(=O)c1ccc(C(=O)Nc2nnc(COC)o2)cc1	4.47 µM [falling, partial curve]	31.6 µM [falling, single point]
Cc1nonc1OCCNCCNc1ccc([N+](=O)[O-])cc1Cl	7.94 µM [falling, partial curve, poor fit]	–
COc1ccc(OC)c(NC(=O)CN(Cc2ccc(Cl)cc2)S(C)(=O)=O)c1	–	7.08 µM [falling, full curve, poor fit]
COCCCNC(=O)c1oc2c(c1C)-c1nn(Cc3cccc(Cl)c3)cc1CC2	35.5 µM [falling, partial curve, poor fit]	35.5 µM [falling, partial curve]
O=C(COc1cccc(Cl)c1)Nc1ccc2c(c1)CCC2	14.1 µM [rising, single point]	25.1 µM [rising, single point]
O=C(/C=C/c1ccc(O)cc1)c1ccc(O)cc1O	6.31 µM [falling, full curve, poor fit]	12.6 µM [rising, partial curve, poor fit] and 6.31 µM [falling, full curve, poor fit]
COc1ccc(C2(C(N)=O)CCCCC2)cc1OC	1 µM [rising, partial curve, poor fit]	22.4 µM [rising, single point]
COc1ccc(C(=O)NCC(O)COc2ccc(C(C)(C)C)cc2)cc1[N+](=O)[O-] (stereo unspecified)	15.8 µM [rising, single point]	35.5 µM [rising, single point]
O=C(N/C=C\c1ccccc1)NCc1ccc(Cl)cc1	–	3.16 µM [falling, partial curve, poor fit]
COCn1ccnc1C(O)(c1ccc(OC)cc1)c1ccc(OC)cc1	0.112 µM [falling, partial curve]	–
CC(C)OCCCNC(=O)Cc1ccc(Br)cc1	–	0.0158 µM [falling, full curve, poor fit]
Cn1c2c(c(=O)n(C)c1=O)C(C(F)(F)F)(C(F)(F)F)N=C(c1ccc(Cl)cc1)N2	–	11.2 µM [falling, partial curve]
NS(=O)(=O)c1cc(C(=O)NCCOc2ccccc2)c(Cl)cc1Cl	12.6 µM [rising, single point]	–
CCN(CC)C(=O)CSC1=N/C(=C/c2ccco2)C(=O)N1c1ccc(OC)c(Cl)c1	–	20 µM [rising, partial curve, poor fit]

Compound	AC50 [1]	AC50 [2]
COc1ccccc1N1CCN(c2ncc(C(=O)N3CCN(c4cccc(Cl)c4)CC3)c3ccccc23)CC1	5.62 µM [falling, single point]	5.01 µM [falling, single point]
COc1cc(OC)c(NC(=O)C2CCCN(c3ncnc4c3nc3n4CCCCC3)C2)cc1Cl (stereo unspecified)	5.62 µM [falling, partial curve]	–
COc1cccc(/C=C(/C(=O)OCC(=O)NC2CCCC(C)C2C)c2ccccc2)c1 (stereo unspecified)	8.91 µM [rising, partial curve]	12.6 µM [rising, partial curve]
CCCCOc1ccc(C(=O)OCC(=O)Nc2cc(C)c(C)cc2[N+](=O)[O-])cc1	7.08 µM [falling, full curve, poor fit]	7.94 µM [falling, partial curve, poor fit]
Cc1c(NC(=O)c2cccnc2)c(=O)n(-c2ccccc2)n1C	0.00355 µM [falling, full curve]	0.00501 µM [falling, full curve]
Cc1cc2nnc(SCC(=O)N3CCCCC3)n2c(N)n1	–	3.98 µM [falling, partial curve, poor fit]
CCc1ccccc1N=C1S/C(=C/c2ccccc2OCC(=O)N2CCOCC2)C(=O)N1C	–	31.6 µM [rising, single point]
Cc1ccc(S(=O)(=O)Nc2ccc3nc(N)sc3c2)cc1	12.6 µM [rising, single point]	15.8 µM [rising, partial curve]
CC(=O)Oc1cc2c(C(=O)NCCN3CCOCC3)c(C)oc2c2ccccc12	15.8 µM [rising, single point]	20 µM [rising, single point]
CC/S(=N\S(=O)(=O)c1ccc(C)cc1)c1ccccc1 (stereo unspecified)	0.631 µM [falling, full curve, poor fit]	0.562 µM [falling, full curve]
CCN(c1ccc2c(c1)OCO2)S(=O)(=O)c1cc(Br)cc2c1N(C(=O)C1CC1)CC2	–	14.1 µM [rising, single point]
Cc1nc(Nc2ccc(Cl)cc2Cl)sc1C(=O)Nc1ccccc1	20 µM [rising, partial curve, poor fit]	17.8 µM [rising, partial curve]
CNC(=O)C1C(=S)NC(N)=C(C#N)C1c1ccccc1 (stereo unspecified)	35.5 µM [falling, single point]	22.4 µM [falling, single point]
CCOC(=O)c1cnc(SCC(=O)N2CCOCC2)nc1N	–	22.4 µM [falling, single point]
COc1ccc(-n2c(O)c(/C=N/NS(=O)(=O)c3ccc(C)c([N+](=O)[O-])c3)c3ccccc3c2=O)cc1OC	15.8 µM [rising, partial curve]	12.6 µM [rising, partial curve]
COC(CNC(=O)c1cc(C(=O)c2c(-c3c(Cl)cccc3Cl)noc2C)c[nH]1)OC	35.5 µM [rising, single point]	35.5 µM [rising, single point]
